# Experiments:
# [1] = test system: proteins of intact DAOY cells; experiment: Thermal proteome profiling (TPP) in intact cells; type: cell-based, human
# [2] = test system: proteins of DAOY cell lysates; experiment: TPP in lysates; type: binding, human
# [3] = intact DAOY cells, 10 µM, P < 0.05
# [4] = DAOY lysates, 10 µM, P value < 0.05
compound,measurement,setting,value
O=[N+]([O-])c1c(Cl)cc(O)c2c1C1C=CCC1C(c1ccc(Cl)cc1)N2 (centres unmarked) [Compound 7],proteins destabilized (number),[1]; [3],62
same,proteins destabilized (percent),[1]; [3],1.12%
same,proteins stabilized (number),[1]; [3],91
same,proteins stabilized (percent),[1]; [3],1.64%
same,candidates with significant Tm difference,"[1]; intact DAOY cells, 10 µM, adjusted P value < 0.05",153
same,proteins with a Tm shift of equal or more than 5 °C (percent),[1]; intact cells,0.65%
same,proteins destabilized (number),[2]; [4],68
same,proteins destabilized (percent),[2]; [4],1.21%
same,proteins stabilized (number),[2]; [4],62
same,proteins stabilized (percent),[2]; [4],1.1%
same,proteins with a Tm shift of equal or more than 5 °C (percent),[2]; lysate,0.44%

# — publication PMC10060354, “Discovery of a small molecule ligand of FRS2 that inhibits invasion and tumor growth” (Cellular Oncology, 2022)
